Experimental data: article PMC9767466
These are yes or no findings as the source states them, for the method shown. In cells and extracts the contact can be indirect. A yes stands for co-enrichment or nearness to the bait. Other partners may have been found. Where a sequence is shown, tags or fusion partners need not be part of it.

Amino acid sequences for entries named in this document (tags omitted). Residues count along the entry.
UniProt Q8BPU7: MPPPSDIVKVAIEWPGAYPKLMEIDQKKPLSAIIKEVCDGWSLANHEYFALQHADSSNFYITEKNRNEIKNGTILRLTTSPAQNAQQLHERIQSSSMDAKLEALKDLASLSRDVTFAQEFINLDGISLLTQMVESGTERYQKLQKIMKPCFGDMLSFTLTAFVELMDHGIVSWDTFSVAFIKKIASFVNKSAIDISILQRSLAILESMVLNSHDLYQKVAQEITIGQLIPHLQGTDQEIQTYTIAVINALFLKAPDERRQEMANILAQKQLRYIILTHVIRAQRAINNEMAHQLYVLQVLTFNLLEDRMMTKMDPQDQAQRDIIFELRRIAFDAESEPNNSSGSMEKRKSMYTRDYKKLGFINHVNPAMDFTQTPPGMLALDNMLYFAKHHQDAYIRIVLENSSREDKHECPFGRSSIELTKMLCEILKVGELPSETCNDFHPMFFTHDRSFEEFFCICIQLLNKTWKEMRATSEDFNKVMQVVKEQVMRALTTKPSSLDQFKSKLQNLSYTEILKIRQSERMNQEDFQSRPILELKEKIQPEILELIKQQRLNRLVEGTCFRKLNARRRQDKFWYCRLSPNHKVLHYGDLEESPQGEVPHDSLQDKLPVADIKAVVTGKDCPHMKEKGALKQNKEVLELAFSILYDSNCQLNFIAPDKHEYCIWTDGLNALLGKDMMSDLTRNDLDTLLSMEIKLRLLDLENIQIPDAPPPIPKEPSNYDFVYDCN
UniProt Q9DBG6, residues 23-631: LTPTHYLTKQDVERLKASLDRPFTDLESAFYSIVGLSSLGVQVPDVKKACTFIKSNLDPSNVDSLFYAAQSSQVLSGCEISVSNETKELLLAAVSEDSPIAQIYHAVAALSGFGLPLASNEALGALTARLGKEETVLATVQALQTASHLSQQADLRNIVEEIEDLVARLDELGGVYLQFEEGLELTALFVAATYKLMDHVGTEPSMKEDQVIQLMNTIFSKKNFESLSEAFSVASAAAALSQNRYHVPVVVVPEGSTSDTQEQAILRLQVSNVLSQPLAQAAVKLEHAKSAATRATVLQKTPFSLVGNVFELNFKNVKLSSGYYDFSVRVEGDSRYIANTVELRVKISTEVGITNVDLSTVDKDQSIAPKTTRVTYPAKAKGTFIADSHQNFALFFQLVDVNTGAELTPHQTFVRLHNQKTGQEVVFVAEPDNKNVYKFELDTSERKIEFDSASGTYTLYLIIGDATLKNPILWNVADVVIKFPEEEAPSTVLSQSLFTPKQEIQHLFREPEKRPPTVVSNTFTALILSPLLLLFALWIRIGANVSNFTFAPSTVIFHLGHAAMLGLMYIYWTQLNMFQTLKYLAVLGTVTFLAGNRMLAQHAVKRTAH
UniProt Q9Z1M0: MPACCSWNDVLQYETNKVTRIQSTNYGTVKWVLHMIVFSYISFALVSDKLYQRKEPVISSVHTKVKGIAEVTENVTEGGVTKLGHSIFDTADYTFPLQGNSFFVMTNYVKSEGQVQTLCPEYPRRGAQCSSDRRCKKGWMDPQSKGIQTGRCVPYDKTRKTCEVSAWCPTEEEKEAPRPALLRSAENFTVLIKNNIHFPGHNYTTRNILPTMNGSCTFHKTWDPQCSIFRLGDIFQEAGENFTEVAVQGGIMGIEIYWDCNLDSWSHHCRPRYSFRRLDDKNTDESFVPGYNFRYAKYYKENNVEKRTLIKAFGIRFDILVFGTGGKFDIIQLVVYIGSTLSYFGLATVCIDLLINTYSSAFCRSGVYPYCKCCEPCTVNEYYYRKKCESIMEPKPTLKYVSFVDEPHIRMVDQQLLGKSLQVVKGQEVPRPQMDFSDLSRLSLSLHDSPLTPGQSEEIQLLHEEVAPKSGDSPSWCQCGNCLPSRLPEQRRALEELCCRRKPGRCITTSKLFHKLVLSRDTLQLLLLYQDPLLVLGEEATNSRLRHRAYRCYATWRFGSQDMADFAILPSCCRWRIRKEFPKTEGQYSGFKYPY
UniProt Q8C3J5: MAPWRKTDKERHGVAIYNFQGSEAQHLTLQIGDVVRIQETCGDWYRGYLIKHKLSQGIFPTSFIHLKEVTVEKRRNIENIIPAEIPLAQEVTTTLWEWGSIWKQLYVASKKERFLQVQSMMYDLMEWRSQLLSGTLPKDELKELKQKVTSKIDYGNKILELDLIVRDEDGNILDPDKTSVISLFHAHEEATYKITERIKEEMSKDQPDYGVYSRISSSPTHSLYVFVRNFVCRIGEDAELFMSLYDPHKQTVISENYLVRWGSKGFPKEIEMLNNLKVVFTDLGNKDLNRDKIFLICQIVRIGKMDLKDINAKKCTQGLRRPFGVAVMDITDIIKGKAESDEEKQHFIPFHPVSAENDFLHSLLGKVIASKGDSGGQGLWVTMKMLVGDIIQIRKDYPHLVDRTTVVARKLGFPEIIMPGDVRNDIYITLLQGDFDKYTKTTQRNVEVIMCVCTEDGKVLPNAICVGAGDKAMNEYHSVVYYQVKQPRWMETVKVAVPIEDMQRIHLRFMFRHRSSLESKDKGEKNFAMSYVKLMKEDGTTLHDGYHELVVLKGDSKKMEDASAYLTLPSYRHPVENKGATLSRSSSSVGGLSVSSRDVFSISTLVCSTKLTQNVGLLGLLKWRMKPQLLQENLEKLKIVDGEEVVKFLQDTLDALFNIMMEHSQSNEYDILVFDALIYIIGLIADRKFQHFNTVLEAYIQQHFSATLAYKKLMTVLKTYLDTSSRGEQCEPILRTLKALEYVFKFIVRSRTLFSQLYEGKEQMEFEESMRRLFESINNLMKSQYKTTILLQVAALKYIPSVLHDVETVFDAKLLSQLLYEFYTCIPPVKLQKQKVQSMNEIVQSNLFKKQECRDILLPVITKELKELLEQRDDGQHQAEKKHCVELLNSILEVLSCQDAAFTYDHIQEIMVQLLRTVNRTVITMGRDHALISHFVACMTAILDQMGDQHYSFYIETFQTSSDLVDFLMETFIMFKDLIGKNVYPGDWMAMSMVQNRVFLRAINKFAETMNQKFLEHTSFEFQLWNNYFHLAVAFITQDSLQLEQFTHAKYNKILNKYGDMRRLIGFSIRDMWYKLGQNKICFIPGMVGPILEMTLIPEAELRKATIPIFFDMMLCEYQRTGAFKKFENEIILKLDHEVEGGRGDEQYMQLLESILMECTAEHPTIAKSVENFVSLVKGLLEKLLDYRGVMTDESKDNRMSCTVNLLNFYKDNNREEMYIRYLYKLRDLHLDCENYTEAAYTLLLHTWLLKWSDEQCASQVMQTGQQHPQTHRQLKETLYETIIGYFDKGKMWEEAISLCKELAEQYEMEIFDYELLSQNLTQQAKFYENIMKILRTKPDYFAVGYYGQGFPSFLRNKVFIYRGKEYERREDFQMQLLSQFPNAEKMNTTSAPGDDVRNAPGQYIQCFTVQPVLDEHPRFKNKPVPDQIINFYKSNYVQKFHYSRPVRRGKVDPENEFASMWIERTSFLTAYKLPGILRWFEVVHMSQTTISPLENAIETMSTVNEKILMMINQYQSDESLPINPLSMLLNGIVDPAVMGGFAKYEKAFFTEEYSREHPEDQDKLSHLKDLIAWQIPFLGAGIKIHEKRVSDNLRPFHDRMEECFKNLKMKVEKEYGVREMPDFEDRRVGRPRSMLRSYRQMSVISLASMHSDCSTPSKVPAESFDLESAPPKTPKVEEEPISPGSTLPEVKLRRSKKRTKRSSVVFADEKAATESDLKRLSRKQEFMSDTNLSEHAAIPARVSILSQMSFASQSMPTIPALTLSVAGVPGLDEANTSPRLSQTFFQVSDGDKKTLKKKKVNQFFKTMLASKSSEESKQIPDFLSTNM

Target: T1, N-terminal FLAG-tagged EROS in RAW 264.7 macrophages (UniProt Q3TYS2)
T1 sequence: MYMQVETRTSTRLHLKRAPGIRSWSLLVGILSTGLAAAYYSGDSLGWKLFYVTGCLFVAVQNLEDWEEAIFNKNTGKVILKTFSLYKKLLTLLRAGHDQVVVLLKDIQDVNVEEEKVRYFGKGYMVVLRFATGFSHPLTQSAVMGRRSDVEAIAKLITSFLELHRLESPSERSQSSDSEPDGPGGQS
Test: affinity purification with mass spectrometry; FLAG affinity purification from RAW 264.7 macrophages overexpressing FLAG-tagged EROS against untagged control cells, four biological replicates; elution with 3xFLAG peptide; LC-MS/MS; SAINTexpress, SP > 0.9 for high-confidence interactors

Q: How did the binding turn out when “Elmo1, endogenous in RAW 264.7 macrophages (from UniProt Q8BPU7 1-727)” was run?
A: binds

Q: With “ribophorin 2 (RPN2), endogenous in RAW 264.7 macrophages (from UniProt Q9DBG6 23-631)” as the substance, how does the binding read?
A: binds

Q: “P2X7, endogenous in RAW 264.7 macrophages (from UniProt Q9Z1M0 1-595) (receptor)” was tested. Which binding did it give?
A: binds

Q: How did the binding turn out when “Dock2, endogenous in RAW 264.7 macrophages (from UniProt Q8C3J5 1-1828)” was run?
A: binds
